Source: PubChem BioAssay AID504774 (Drosophila RNAi Screening Center, 2011)

- Aim: 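Genes required for cells to withstand methyl methanesulphonate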 (primary screen)
- System: Drosophila Kc167 cells
- Reagent: long dsRNA against Drosophila genes, about 0.25 µg dsRNA per well
- Time to read-out: about 6 days: 3 days knock-down, then 3 days with or without MMS
- Treatment: methyl methanesulphonate 0.004% (w/v) for 3 days after knock-down
- Detection: 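Viability in wells given MMS, read as ATP luminescence, normalised by quantiles plate by plate and averaged across replicates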
- Reading the numbers: mean viability with MMS and viability with MMS: higher = more surviving cells after MMS
The screen tested about 23,000 reagents; shown is an unselected part of those that have a named target and a result. 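Values are quantile-normalised luminescence on an arbitrary scale; higher means more cells surviving MMS.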 A plus sign joins genes that one reagent is predicted to hit. Further read-outs or replicates are left out here.

With mthl12 [DRSC12964], how do the results read?
mean viability with MMS: 3.51e6; viability with MMS, replicate 1: 4.00e6

For CG5966 [DRSC18394], what was measured?
mean viability with MMS: 3.55e6; viability with MMS, replicate 1: 3.91e6

With Ssadh [DRSC15621], how do the results read?
mean viability with MMS: 3.63e6; viability with MMS, replicate 1: 4.16e6

What is on record for CG14591 [DRSC04868]?
mean viability with MMS: 3.48e6; viability with MMS, replicate 1: 4.11e6

What is on record for Sema5c [DRSC11279]?
mean viability with MMS: 3.54e6; viability with MMS, replicate 1: 3.94e6

How did the screen score CG18810 [DRSC02701]?
mean viability with MMS: 3.58e6; viability with MMS, replicate 1: 4.11e6

With CG13306 [DRSC09976], how do the results read?
mean viability with MMS: 3.54e6; viability with MMS, replicate 1: 3.95e6

With Obp50b + Obp50c [DRSC21818], what does the deposit list?
mean viability with MMS: 3.49e6; viability with MMS, replicate 1: 3.91e6

For Ggamma1 [DRSC07435], what does the deposit list?
mean viability with MMS: 3.50e6; viability with MMS, replicate 1: 3.93e6

What did the screen give for CG18336 [DRSC06334]?
mean viability with MMS: 3.72e6; viability with MMS, replicate 1: 4.25e6

What is on record for Non2 [DRSC08272]?
mean viability with MMS: 3.31e6; viability with MMS, replicate 1: 3.69e6

For CG13046 [DRSC09927], what was measured?
mean viability with MMS: 3.48e6; viability with MMS, replicate 1: 3.95e6

How did the screen score Atg10 + CG12822 [DRSC06796]?
mean viability with MMS: 3.48e6; viability with MMS, replicate 1: 4.04e6

What did the screen give for Cpr66D [DRSC10640]?
mean viability with MMS: 3.11e6; viability with MMS, replicate 1: 3.52e6

What is on record for Cpr66D [DRSC10646]?
mean viability with MMS: 3.22e6; viability with MMS, replicate 1: 3.56e6

With Cpr66D [DRSC23178], what does the deposit list?
mean viability with MMS: 3.67e6; viability with MMS, replicate 1: 4.16e6

For CG42788 [DRSC15330], how do the results read?
mean viability with MMS: 3.64e6; viability with MMS, replicate 1: 4.10e6

Which result is listed for CG42788 [DRSC16139]?
mean viability with MMS: 3.41e6; viability with MMS, replicate 1: 3.98e6

Which result is listed for CG42788 [DRSC16152]?
mean viability with MMS: 3.48e6; viability with MMS, replicate 1: 3.97e6

Taken from above:
Under “viability with MMS, replicate 1”, Ssadh [DRSC15621] has 4.16e6
Entry for CG5966 [DRSC18394] under “viability with MMS, replicate 1”: 3.91e6
Value of CG18336 [DRSC06334] under “mean viability with MMS”: 3.72e6
CG14591 [DRSC04868], mean viability with MMS = 3.48e6
Value for Sema5c [DRSC11279] in “viability with MMS, replicate 1”: 3.94e6

Continued.
With CG32436 [DRSC11683], how do the results read?
mean viability with MMS: 3.52e6; viability with MMS, replicate 1: 3.96e6

With CG32436 [DRSC11796], what does the deposit list?
mean viability with MMS: 3.60e6; viability with MMS, replicate 1: 4.14e6

Which result is listed for CG34324 [DRSC19502]?
mean viability with MMS: 3.51e6; viability with MMS, replicate 1: 3.93e6

Which result is listed for CG34324 [DRSC23241]?
mean viability with MMS: 3.65e6; viability with MMS, replicate 1: 4.14e6

With Prosbeta5R1 [DRSC04581], how do the results read?
mean viability with MMS: 3.40e6; viability with MMS, replicate 1: 3.67e6

For Pgm2b [DRSC05978], what was measured?
mean viability with MMS: 3.52e6; viability with MMS, replicate 1: 3.90e6

For ATPsyngamma [DRSC14094], what does the deposit list?
mean viability with MMS: 3.37e6; viability with MMS, replicate 1: 3.74e6

How did the screen score Vha68-3 [DRSC02809]?
mean viability with MMS: 3.40e6; viability with MMS, replicate 1: 3.89e6

How did the screen score CG7968 [DRSC01903]?
mean viability with MMS: 3.58e6; viability with MMS, replicate 1: 4.04e6

How did the screen score CG4452 [DRSC10422]?
mean viability with MMS: 3.64e6; viability with MMS, replicate 1: 4.04e6

What did the screen give for Glo1 [DRSC06657]?
mean viability with MMS: 3.52e6; viability with MMS, replicate 1: 3.87e6

With caz [DRSC20317], what does the deposit list?
mean viability with MMS: 3.47e6; viability with MMS, replicate 1: 3.91e6

Which result is listed for caz [DRSC22594]?
mean viability with MMS: 3.39e6; viability with MMS, replicate 1: 3.88e6

For caz [DRSC23280], what does the deposit list?
mean viability with MMS: 3.49e6; viability with MMS, replicate 1: 4.01e6

Which result is listed for Antp [DRSC12490]?
mean viability with MMS: 3.20e6; viability with MMS, replicate 1: 3.62e6

What did the screen give for Antp [DRSC23104]?
mean viability with MMS: 3.59e6; viability with MMS, replicate 1: 4.15e6
